According to patent publication US20030028002A1:
Numbering of substitutions follows the chain as printed. Names and notes keep the numbering of the source. No constants are given. Whether binding was seen depends on the method and setting. Some results given as binding are weak or reduced against the parent protein; the word gives no strength. Where a sequence is shown, tags or fusion partners need not be part of it.

The chains behind the UniProt entries cited, without tags or fusion partners.
UniProt P25322: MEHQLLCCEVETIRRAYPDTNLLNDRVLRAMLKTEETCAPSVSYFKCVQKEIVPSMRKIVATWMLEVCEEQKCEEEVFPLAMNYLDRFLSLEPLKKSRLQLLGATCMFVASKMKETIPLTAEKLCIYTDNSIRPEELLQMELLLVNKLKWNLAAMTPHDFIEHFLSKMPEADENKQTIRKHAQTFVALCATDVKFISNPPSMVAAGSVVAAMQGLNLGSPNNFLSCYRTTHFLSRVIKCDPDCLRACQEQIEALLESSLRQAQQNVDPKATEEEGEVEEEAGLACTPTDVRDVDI

B1: Flag-tagged wildtype DMP1 (amino acids 1-761) (protein, not shown: small tags and cut ends)
chain: MSTVEEDSDTVTVETVNSVTFTQDTDGNLILHCPQNDPDEVDSEDSTEPPHKRLCLSSEDDQSIDDATPCISVVALPLSENDQSFEVTMTATTEVADDELSEGTVTQIQILQNDQLDEISPLGTEEVSAVSQAWFTTKEDKDSLTNKGHKWKQGMWSKEEIDILMNNIERYLKARGIKDATEIIFEMSKDERKDFYRTIAWGLNRPLFAVYRRVLRMYDDRNHVGKYTPEEIEKLKELRIKHGNDWATIGAALGRSASSVKDRCRLMKDTCNTGKWTEEEEKRLAEVVHELTSTEPGDIVTQGVSWAAVAERVGTRSEKQCRSKWLNYLNWKQSGGTEWTKEDEINLILRIAELDVADENDINWDLLAEGWSSVRSPQWLRSKWWTIKRQIANHKDVSFPVLIKGLKQLHENQKNNPVLLENKSGSGVPNSNCNSSVQHVQIRVARLEDNTAISPSPMAALQIPVQITHVSSTDSPAASADSETITLNSGTLQTFEILPSFPLQPTGTPGTYLLQTSSSQGLPLTLTTNPTLTLAAAAPASPEQIIVHALSPEHLLNTSDNVTVQCHTPRVIIQTVATEDITSSLSQEELTVDSDLHSSDFPEPPDALEADTFPDEIPRPKMTIQPSFNNAHVSKFSDQNSTELMNSVMVRTEEEIADTDLKQEEPPSDLASAYVTEDLESPTIVHQVHQTIDDETILIVPSPHGFIQASDVIDTESVLPLTTLTDPIFQHHQEASNIIGSSLGSPVSEDSKDVEDLVNCH
B2: Flag-tagged DMP1 deletion mutant M1 (amino acids 1-661) (protein, not shown: small tags and cut ends)
chain: MSTVEEDSDTVTVETVNSVTFTQDTDGNLILHCPQNDPDEVDSEDSTEPPHKRLCLSSEDDQSIDDATPCISVVALPLSENDQSFEVTMTATTEVADDELSEGTVTQIQILQNDQLDEISPLGTEEVSAVSQAWFTTKEDKDSLTNKGHKWKQGMWSKEEIDILMNNIERYLKARGIKDATEIIFEMSKDERKDFYRTIAWGLNRPLFAVYRRVLRMYDDRNHVGKYTPEEIEKLKELRIKHGNDWATIGAALGRSASSVKDRCRLMKDTCNTGKWTEEEEKRLAEVVHELTSTEPGDIVTQGVSWAAVAERVGTRSEKQCRSKWLNYLNWKQSGGTEWTKEDEINLILRIAELDVADENDINWDLLAEGWSSVRSPQWLRSKWWTIKRQIANHKDVSFPVLIKGLKQLHENQKNNPVLLENKSGSGVPNSNCNSSVQHVQIRVARLEDNTAISPSPMAALQIPVQITHVSSTDSPAASADSETITLNSGTLQTFEILPSFPLQPTGTPGTYLLQTSSSQGLPLTLTTNPTLTLAAAAPASPEQIIVHALSPEHLLNTSDNVTVQCHTPRVIIQTVATEDITSSLSQEELTVDSDLHSSDFPEPPDALEADTFPDEIPRPKMTIQPSFNNAHVSKFSDQNSTELMNSVMVRTEEEIADTDL
B3: Flag-tagged DMP1 deletion mutant M2 (amino acids 1-520) (protein, not shown: small tags and cut ends)
chain: MSTVEEDSDTVTVETVNSVTFTQDTDGNLILHCPQNDPDEVDSEDSTEPPHKRLCLSSEDDQSIDDATPCISVVALPLSENDQSFEVTMTATTEVADDELSEGTVTQIQILQNDQLDEISPLGTEEVSAVSQAWFTTKEDKDSLTNKGHKWKQGMWSKEEIDILMNNIERYLKARGIKDATEIIFEMSKDERKDFYRTIAWGLNRPLFAVYRRVLRMYDDRNHVGKYTPEEIEKLKELRIKHGNDWATIGAALGRSASSVKDRCRLMKDTCNTGKWTEEEEKRLAEVVHELTSTEPGDIVTQGVSWAAVAERVGTRSEKQCRSKWLNYLNWKQSGGTEWTKEDEINLILRIAELDVADENDINWDLLAEGWSSVRSPQWLRSKWWTIKRQIANHKDVSFPVLIKGLKQLHENQKNNPVLLENKSGSGVPNSNCNSSVQHVQIRVARLEDNTAISPSPMAALQIPVQITHVSSTDSPAASADSETITLNSGTLQTFEILPSFPLQPTGTPGTYLLQTSSSQ
B4: Flag-tagged DMP1 deletion mutant M3 (amino acids 1-458) (protein, not shown: small tags and cut ends)
chain: MSTVEEDSDTVTVETVNSVTFTQDTDGNLILHCPQNDPDEVDSEDSTEPPHKRLCLSSEDDQSIDDATPCISVVALPLSENDQSFEVTMTATTEVADDELSEGTVTQIQILQNDQLDEISPLGTEEVSAVSQAWFTTKEDKDSLTNKGHKWKQGMWSKEEIDILMNNIERYLKARGIKDATEIIFEMSKDERKDFYRTIAWGLNRPLFAVYRRVLRMYDDRNHVGKYTPEEIEKLKELRIKHGNDWATIGAALGRSASSVKDRCRLMKDTCNTGKWTEEEEKRLAEVVHELTSTEPGDIVTQGVSWAAVAERVGTRSEKQCRSKWLNYLNWKQSGGTEWTKEDEINLILRIAELDVADENDINWDLLAEGWSSVRSPQWLRSKWWTIKRQIANHKDVSFPVLIKGLKQLHENQKNNPVLLENKSGSGVPNSNCNSSVQHVQIRVARLEDNTAISPSPM
B5: Flag-tagged DMP1 deletion mutant M4 (amino acids 1-380) (protein, not shown: small tags and cut ends)
chain: MSTVEEDSDTVTVETVNSVTFTQDTDGNLILHCPQNDPDEVDSEDSTEPPHKRLCLSSEDDQSIDDATPCISVVALPLSENDQSFEVTMTATTEVADDELSEGTVTQIQILQNDQLDEISPLGTEEVSAVSQAWFTTKEDKDSLTNKGHKWKQGMWSKEEIDILMNNIERYLKARGIKDATEIIFEMSKDERKDFYRTIAWGLNRPLFAVYRRVLRMYDDRNHVGKYTPEEIEKLKELRIKHGNDWATIGAALGRSASSVKDRCRLMKDTCNTGKWTEEEEKRLAEVVHELTSTEPGDIVTQGVSWAAVAERVGTRSEKQCRSKWLNYLNWKQSGGTEWTKEDEINLILRIAELDVADENDINWDLLAEGWSSVRSPQWL
B6: Flag-tagged DMP1 deletion mutant M6 (amino acids 1-86; 170-761) (protein, not shown: small tags and cut ends)
chain: MSTVEEDSDTVTVETVNSVTFTQDTDGNLILHCPQNDPDEVDSEDSTEPPHKRLCLSSEDDQSIDDATPCISVVALPLSENDQSFERYLKARGIKDATEIIFEMSKDERKDFYRTIAWGLNRPLFAVYRRVLRMYDDRNHVGKYTPEEIEKLKELRIKHGNDWATIGAALGRSASSVKDRCRLMKDTCNTGKWTEEEEKRLAEVVHELTSTEPGDIVTQGVSWAAVAERVGTRSEKQCRSKWLNYLNWKQSGGTEWTKEDEINLILRIAELDVADENDINWDLLAEGWSSVRSPQWLRSKWWTIKRQIANHKDVSFPVLIKGLKQLHENQKNNPVLLENKSGSGVPNSNCNSSVQHVQIRVARLEDNTAISPSPMAALQIPVQITHVSSTDSPAASADSETITLNSGTLQTFEILPSFPLQPTGTPGTYLLQTSSSQGLPLTLTTNPTLTLAAAAPASPEQIIVHALSPEHLLNTSDNVTVQCHTPRVIIQTVATEDITSSLSQEELTVDSDLHSSDFPEPPDALEADTFPDEIPRPKMTIQPSFNNAHVSKFSDQNSTELMNSVMVRTEEEIADTDLKQEEPPSDLASAYVTEDLESPTIVHQVHQTIDDETILIVPSPHGFIQASDVIDTESVLPLTTLTDPIFQHHQEASNIIGSSLGSPVSEDSKDVEDLVNCH
B7: Flag-tagged DMP1 deletion mutant M7 (amino acids 1-169; 238-761) (protein, not shown: small tags and cut ends)
chain: MSTVEEDSDTVTVETVNSVTFTQDTDGNLILHCPQNDPDEVDSEDSTEPPHKRLCLSSEDDQSIDDATPCISVVALPLSENDQSFEVTMTATTEVADDELSEGTVTQIQILQNDQLDEISPLGTEEVSAVSQAWFTTKEDKDSLTNKGHKWKQGMWSKEEIDILMNNIELRIKHGNDWATIGAALGRSASSVKDRCRLMKDTCNTGKWTEEEEKRLAEVVHELTSTEPGDIVTQGVSWAAVAERVGTRSEKQCRSKWLNYLNWKQSGGTEWTKEDEINLILRIAELDVADENDINWDLLAEGWSSVRSPQWLRSKWWTIKRQIANHKDVSFPVLIKGLKQLHENQKNNPVLLENKSGSGVPNSNCNSSVQHVQIRVARLEDNTAISPSPMAALQIPVQITHVSSTDSPAASADSETITLNSGTLQTFEILPSFPLQPTGTPGTYLLQTSSSQGLPLTLTTNPTLTLAAAAPASPEQIIVHALSPEHLLNTSDNVTVQCHTPRVIIQTVATEDITSSLSQEELTVDSDLHSSDFPEPPDALEADTFPDEIPRPKMTIQPSFNNAHVSKFSDQNSTELMNSVMVRTEEEIADTDLKQEEPPSDLASAYVTEDLESPTIVHQVHQTIDDETILIVPSPHGFIQASDVIDTESVLPLTTLTDPIFQHHQEASNIIGSSLGSPVSEDSKDVEDLVNCH
B8: Flag-tagged DMP1 deletion mutant M8 (amino acids 1-237; 381-761) (protein, not shown: small tags and cut ends)
chain: MSTVEEDSDTVTVETVNSVTFTQDTDGNLILHCPQNDPDEVDSEDSTEPPHKRLCLSSEDDQSIDDATPCISVVALPLSENDQSFEVTMTATTEVADDELSEGTVTQIQILQNDQLDEISPLGTEEVSAVSQAWFTTKEDKDSLTNKGHKWKQGMWSKEEIDILMNNIERYLKARGIKDATEIIFEMSKDERKDFYRTIAWGLNRPLFAVYRRVLRMYDDRNHVGKYTPEEIEKLKERSKWWTIKRQIANHKDVSFPVLIKGLKQLHENQKNNPVLLENKSGSGVPNSNCNSSVQHVQIRVARLEDNTAISPSPMAALQIPVQITHVSSTDSPAASADSETITLNSGTLQTFEILPSFPLQPTGTPGTYLLQTSSSQGLPLTLTTNPTLTLAAAAPASPEQIIVHALSPEHLLNTSDNVTVQCHTPRVIIQTVATEDITSSLSQEELTVDSDLHSSDFPEPPDALEADTFPDEIPRPKMTIQPSFNNAHVSKFSDQNSTELMNSVMVRTEEEIADTDLKQEEPPSDLASAYVTEDLESPTIVHQVHQTIDDETILIVPSPHGFIQASDVIDTESVLPLTTLTDPIFQHHQEASNIIGSSLGSPVSEDSKDVEDLVNCH
B9: Flag-tagged DMP1 deletion mutant M10 (amino acids 87-458) (protein, not shown: small tags and cut ends)
chain: VTMTATTEVADDELSEGTVTQIQILQNDQLDEISPLGTEEVSAVSQAWFTTKEDKDSLTNKGHKWKQGMWSKEEIDILMNNIERYLKARGIKDATEIIFEMSKDERKDFYRTIAWGLNRPLFAVYRRVLRMYDDRNHVGKYTPEEIEKLKELRIKHGNDWATIGAALGRSASSVKDRCRLMKDTCNTGKWTEEEEKRLAEVVHELTSTEPGDIVTQGVSWAAVAERVGTRSEKQCRSKWLNYLNWKQSGGTEWTKEDEINLILRIAELDVADENDINWDLLAEGWSSVRSPQWLRSKWWTIKRQIANHKDVSFPVLIKGLKQLHENQKNNPVLLENKSGSGVPNSNCNSSVQHVQIRVARLEDNTAISPSPM
B10: Flag-tagged DMP1 point mutant M11 (K319E) (protein, not shown: small tags and cut ends)
chain: B1 chain with K319E

Target: cyclin D1 (mouse) (UniProt P25322)
Assay: anti-Flag immunoprecipitation from Sf9 lysates, Western blot for cyclin D1

Q: Which binding does the source give for B1 here?
A: Its binding is “binds”.

Q: For B2, which binding is on record?
A: Its binding is “binds”.

Q: Which binding does the source give for B3 here?
A: The binding was “binds”.

Q: For B4, which binding is on record?
A: The binding was “binds”.

Q: How did the binding turn out when B5 was run?
A: Its binding is “binds”.

Q: With B6 as the binder, how does the binding read?
A: The binding was “binds”.

Q: How did the binding turn out when B7 was run?
A: The binding was “binds”.

Q: How did the binding turn out when B8 was run?
A: Its binding is “binds”.

Q: How did the binding turn out when B9 was run?
A: Its binding is “binds”.

Q: With B10 as the binder, how does the binding read?
A: The binding was “binds”.
